PubChem BioAssay AID686937 – Drosophila RNAi Screening Center – 2013
In all, the deposit lists about 23,000 reagents; below is a random part of those with a known target gene and a result. 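Reduced-secretion tags in replicate 1 do not always agree with the z-scores; no criterion for assigning the tags was given.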 A plus sign joins genes that one reagent is predicted to hit. Not all columns of the deposit are shown. Not stated in the record: the amount of reagent.

Aim: 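Knock-downs that reduce output of a secreted reporter enzyme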 (primary screen)
System: Drosophila S2 cells expressing secreted horseradish peroxidase
Knock-down reagent: long dsRNA against Drosophila genes
Duration: about 5.5 days (5 days dsRNA, then 12 h reporter induction)
Treatment: reporter expression induced after 5 days of dsRNA, read 12 h later; inducer not stated
Read-out: 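Chemiluminescent measurement of peroxidase in the medium 12 h after reporter induction, following 5 days of dsRNA, given as a z-score per plate; higher means more secretion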
Direction: z-score: higher = more reporter secreted into medium

kuz [DRSC03555] showed z-score, replicate 1 = -0.23.
After knock-down of Or94a [DRSC16772], the screen gave z-score, replicate 1 = 0.22.
With knock-down of Ir20a [DRSC20506], the record shows z-score, replicate 1 = 0.5.
Ets21C [DRSC00751] gave z-score, replicate 1 = 0.2.
Silencing of E(spl)malpha-BFM [DRSC16994] came out at: z-score, replicate 1 = -0.3.
For Hsp70Bb + Hsp70Ba + Hsp70Bc + 1 more [DRSC21247] the deposit lists z-score, replicate 1 = -2.
With knock-down of Hsp70Bb + Hsp70Ba + Hsp70Bc + 1 more [DRSC21248], the record shows z-score, replicate 1 = -2.47.
Against PH4alphaNE2 [DRSC16544] the deposit lists z-score, replicate 1 = 0.41.
Knock-down of EMC4 [DRSC11638] resulted in: z-score, replicate 1 = 0.36.
Knock-down of Trs31 [DRSC05975] gave: z-score, replicate 1 = -0.26.
With knock-down of NHP2 [DRSC11229], the record shows z-score, replicate 1 = 0.11.
Aldh [DRSC02717] scored z-score, replicate 1 = -0.41.
After knock-down of BtbVII [DRSC08151], the record shows z-score, replicate 1 = 0.35.
Against BtbVII [DRSC08415] the deposit lists z-score, replicate 1 = -0.76.
Depletion of Pld3 [DRSC03167] came out at: z-score, replicate 1 = 0.07.
After knock-down of CG3841 [DRSC02730], the record shows z-score, replicate 1 = 0.34.
Depletion of CG1172 + Or83a [DRSC12357] gave: z-score, replicate 1 = 0.17.
With knock-down of amos [DRSC03484], the record shows z-score, replicate 1 = 0.22.
Against CG4836 [DRSC15659], the values are z-score, replicate 1 = 0.26.
With knock-down of CG4836 [DRSC22066] the results were z-score, replicate 1 = 0.02.
Knock-down of Rab4 [DRSC07524] came out at: z-score, replicate 1 = 0.6.
With knock-down of cid [DRSC05429], the screen gave z-score, replicate 1 = -0.84.
After knock-down of cid [DRSC07592], the screen gave z-score, replicate 1 = 0.16.
Knock-down of Tsp29Fa [DRSC03232] came out at: z-score, replicate 1 = 0.56.
After knock-down of tai [DRSC02207], the record shows z-score, replicate 1 = -0.21.
Silencing of tai [DRSC02673] gave: z-score, replicate 1 = 0.62.
Against ana3 [DRSC06289] the deposit lists z-score, replicate 1 = 0.33.
Against IleRS-m [DRSC10506], the entry reads z-score, replicate 1 = 0.1.
Silencing of CG15916 [DRSC19740] gave: z-score, replicate 1 = 0.41.
Against Cpr78E [DRSC11807], the values are z-score, replicate 1 = 0.27.
Depletion of Sgf11 [DRSC09987] came out at: z-score, replicate 1 = 0.57.
Against CG16756 [DRSC18115], the entry reads z-score, replicate 1 = 0.56.
Septin1 [DRSC20573] showed z-score, replicate 1 = 0.36.
After knock-down of CheB98a [DRSC14882] the results were z-score, replicate 1 = 0.39.
Against dl [DRSC03520] the deposit lists z-score, replicate 1 = 0.6.
After knock-down of dl [DRSC03521], the screen gave z-score, replicate 1 = 0.49.
Against CG13051 [DRSC09932], the values are z-score, replicate 1 = 0.16.
With knock-down of CG14219 [DRSC19576], the screen gave z-score, replicate 1 = 0.61.
For Toll-7 [DRSC07563], the entry reads z-score, replicate 1 = 0.1.
For CG12448 [DRSC01967], the values are z-score, replicate 1 = -0.24.
